Results reported in US5686417A, “Peptide T and related peptides in the treatment of HTLV-1 myelopathy and multiple sclerosis” (Reed MacFadden, Ltd., priority 1995, dated 1997).
Part of at least one peptide drawing is inferred or uncertain, most often the ends.

Tests used:
patients with AIDS = settings: Phase I (USC) and Phase II (Boston) trials; cited from earlier work
CD4 = settings: rat hippocampal membranes; cited from earlier work
[1] = test system: mouse fetal hippocampal neurons; settings: cited from earlier work
HIV = settings: cited from earlier work
human monocyte = settings: cited from earlier work
[2] = test system: multiple sclerosis patients; test: case treatments of multiple sclerosis (Examples 2-5); format: in vivo, human
Protocol: A person was diagnosed as having MS after presenting with weakness, loss of balance, double vision, and paraesthesia in their right arm. They were treated with prednisone and later with physiotherapy. […] Tone was increased in both lower limbs and they had bilateral ankle clonus. Deep tendon reflexes were 2+ in the arms, 3+ in both knees and ankles and the planter responses were extensor.
They were started on 10 milligram subcutaneous injections of Peptide T daily. […] Their frequency of nocturia was reduced, fine motor control improved, stuttering decreased, their legs were less spastic and they could stand with minimal support.
A person was diagnosed with optic neuritis secondary to multiple sclerosis after presenting with numbness, impaired motor function, and blurred vision (20/300 bilaterally). Their somatic neurological examination was within normal limits. Minor episodes of numbness and impaired speech, balance and co-ordination had occurred over 6 months, as well as headache and loss of vision.
Peptide T therapy was started.
A person with their first multiple sclerosis episode had optic neuritis and complete blindness in the right eye for 2 weeks, numbness in their right leg and then both legs. Their symptoms worsened. […] They had worsening of their ataxia and blurred vision. They were given prednisone 80 milligrams per day. […] The patient complained of oscillopsia. […] Findings were typical of demyelination consistent with MS. […] The tone was increased in their lower limbs and they had non-sustained ankle clonus bilaterally. Their knee jerk was increased on the right compared to the left. Plantar responses were both upgoing. They had decreased position, vibration, light touch and cold sensation in the feet compared to the hands.
About 2 months later the patient was started on Peptide T 10 milligrams subcutaneously daily. […] They experienced improved feelings in their fingers, fine movements of their hands and improved cognitive function.
A person with a history of dizziness, ataxia, episodes of vertigo, impairment of motor function and generalized weakness of the legs was treated with dilantin and admitted to hospital. […] They were reassessed about 2 years later for episodes of dizziness, and complaints of leg spasms. […] Planter response was downgoing and they had upwards gaze vertical nystagmus as previously noted.

[3] = test system: HTLV-1 myelopathy patient; test: case treatment of HTLV-1 myelopathy (Example 1); format: in vivo, human
protein kinase C = settings: cited from earlier work
[4] = Example 1, after another 2 months of therapy

SMILES: C[C@@H](N)C(=O)N[C@@H](CO)C(=O)N[C@H](C(=O)N[C@H](C(=O)N[C@H](C(=O)N[C@@H](CC(N)=O)C(=O)N[C@@H](Cc1ccc(O)cc1)C(=O)N[C@H](C(N)=O)[C@@H](C)O)[C@@H](C)O)[C@@H](C)O)[C@@H](C)O [Peptide T, D-Ala-Ser-Thr-Thr-Thr-Asn-Tyr-Thr- Amide]
- HIV-induced neurocognitive impairment (patients with AIDS): improvement
- concentration inhibiting the binding of radiolabelled gp120 (CD4): 0.1 nM
- effect on neurotoxicity of CSF from a patient with AIDS dementia ([1]; CSF 44-49% killing at 1:100,000 dilution): inhibited
- effect on gp120-induced neurotoxicity ([1]; mouse hippocampal neuronal culture): completely, antagonized
- reduction of reverse transcriptase (HIV; 100 nM concentrations of Peptide T): ninefold
- detectable levels of HIV reverse transcriptase (HIV; peptides present in assay of HIV infectivity): reduction
- agonism of human monocyte chemotaxis (human monocyte): potent agonists
- symptoms ([2]; Example 2, 10 mg subcutaneous daily, after 11/2 weeks): their symptoms had improved
- symptoms ([2]; Example 2, after 6 months): maintained improvement in their symptoms
- reported function ([2]; Example 2, after about 5 weeks): functional improvement
- symptoms on restarting ([2]; Example 2, restarted the drug): improves
- symptoms after stopping ([2]; Example 2, stopped Peptide T for 3 weeks): Worsening of symptoms
- intellectual and motor functioning ([2]; Example 2, within a few weeks, sustained over a 6 month period): marked symptomatic improvement
- patient-noted function ([2]; Example 3, over the next week): functional improvement
- patient-reported status ([2]; Example 4, 10 mg subcutaneously daily, within 1 to 2 weeks): subjective improvement
- symptoms on restarting ([2]; Example 4, after restarting Peptide T): remarkable improvement of their fatigue, ataxia and fine motor function
- symptoms after stopping ([2]; Example 4, stopped Peptide T therapy): increased fatigue and ataxia
- patient-reported status ([2]; Example 5, 10 mg subcutaneously daily, within 10 days): increased energy and intellectual function, and improved vision
- symptoms after stopping ([2]; Example 5, Peptide T therapy stopped): regressed symptomatically to their pre-drug status
- physical examination ([2]; Example 5, after stopping, versus before Peptide T therapy): no change
- patient-reported status ([3]; Example 1, 10 mg subcutaneously each morning, in two months time): feeling improved
- neurological examination [3, 4]: remained unchanged
- symptoms and walking [3, 4]: decreased symptoms and improved walking
- symptoms on restarting ([3]; Example 1, on restarting Peptide T): their symptoms again resolved
- symptoms after stopping treatment ([3]; Example 1, within two weeks of stopping): all of their symptoms had recurred
- cellular effects via protein kinase C (protein kinase C): regulation of protein kinase C
